No dose or concentration is given here for some results.
Key:
[1] = tested on: A549, H1299, H1975 human lung cancer lines and BEAS-2B normal cell line, each cultured alone; test: VOCs headspace analysis (ITEX GC-MS) of mono-culture groups (Format-1), bulk cell samples 1×10^4 cells; type: cell-based; design: key to Category (VOC increased or decreased relative to the control): ↑: Increased; ↓: decreased; ↑*: <0.01; ↑**: <0.001; conditions: for VOC area under curve (AUC) normalized by STD AUC, A / VOC area under curve (AUC) normalized by STD AUC, B / VOC area under curve (AUC) normalized by STD AUC, C / VOC area under curve (AUC) normalized by STD AUC, D / VOC level in headspace, area under curve (AUC) normalized by STD AUC: bulk 1 × 10^4 cell; for VOC area under curve (AUC) normalized by STD AUC, A: A: BEAS-2B mono-culture headspace; for VOC area under curve (AUC) normalized by STD AUC, B: B: A549 mono-culture headspace; for VOC area under curve (AUC) normalized by STD AUC, C: C: H1299 mono-culture headspace; for VOC area under curve (AUC) normalized by STD AUC, D: D: H1975 mono-culture headspace; for Category (VOC increased or decreased relative to the control): mono-culture groups (Format-1), averaged peak area (n = 3)
[2] = tested on: different-cell pairs of BEAS-2B, A549, H1299, H1975 without physical contact under a mutual headspace; test: VOCs headspace analysis (ITEX GC-MS) of different-cell pair co-culture headspace groups (Format-3), bulk cell samples; type: cell-based, human; design: key to Category (VOC increased or decreased relative to the control): ↑: Increased; ↓: decreased; ↑*: <0.01; ↑**: <0.001; conditions: for VOC area under curve (AUC) normalized by STD AUC, B + C / VOC area under curve (AUC) normalized by STD AUC, B + D / VOC area under curve (AUC) normalized by STD AUC, A + B / VOC area under curve (AUC) normalized by STD AUC, A + C / VOC area under curve (AUC) normalized by STD AUC, A + D / VOC area under curve (AUC) normalized by STD AUC, C + D / VOC level in headspace, area under curve (AUC) normalized by STD AUC: bulk 1 × 10^4 cell; for VOC area under curve (AUC) normalized by STD AUC, B + C: A549 + H1299; for VOC area under curve (AUC) normalized by STD AUC, B + D: A549 + H1975; for VOC area under curve (AUC) normalized by STD AUC, A + B: BEAS-2B + A549; for VOC area under curve (AUC) normalized by STD AUC, A + C: BEAS-2B + H1299; for VOC area under curve (AUC) normalized by STD AUC, A + D: BEAS-2B + H1975; for VOC area under curve (AUC) normalized by STD AUC, C + D: H1299 + H1975; for Category (VOC increased or decreased relative to the control): different-cell pair co-culture headspace (Format-3), averaged peak area (n = 3)

| Compound | VOC level in headspace, area under curve (AUC) normalized by STD AUC ([1]; A (BEAS-2B) mono-culture) | VOC level in headspace, area under curve (AUC) normalized by STD AUC ([1]; B (A549) mono-culture) | VOC level in headspace, area under curve (AUC) normalized by STD AUC ([1]; C (H1299) mono-culture) | VOC level in headspace, area under curve (AUC) normalized by STD AUC ([1]; D (H1975) mono-culture) | VOC level in headspace, area under curve (AUC) normalized by STD AUC ([2]; A + B (BEAS-2B + A549)) | VOC level in headspace, area under curve (AUC) normalized by STD AUC ([2]; A + C (BEAS-2B + H1299)) | VOC level in headspace, area under curve (AUC) normalized by STD AUC ([2]; A + D (BEAS-2B + H1975)) | VOC level in headspace, area under curve (AUC) normalized by STD AUC ([2]; B + C (A549 + H1299)) | VOC level in headspace, area under curve (AUC) normalized by STD AUC ([2]; B + D (A549 + H1975)) | VOC level in headspace, area under curve (AUC) normalized by STD AUC ([2]; C + D (H1299 + H1975)) | other results |
| --- | --- | --- | --- | --- | --- | --- | --- | --- | --- | --- | --- |
| CC(C)(O)CCC(C)(C)O [VOC100] |  |  |  |  |  |  |  |  |  |  | VOC area under curve (AUC) normalized by STD AUC, A [1]: 0; VOC area under curve (AUC) normalized by STD AUC, B [1]: 7.882; VOC area under curve (AUC) normalized by STD AUC, C [1]: 7.3418; VOC area under curve (AUC) normalized by STD AUC, D [1]: 6.549; VOC area under curve (AUC) normalized by STD AUC, B + C [2]: 7.283; VOC area under curve (AUC) normalized by STD AUC, B + D [2]: 6.345; VOC area under curve (AUC) normalized by STD AUC, A + B [2]: 3.9; VOC area under curve (AUC) normalized by STD AUC, A + C [2]: 5.457; VOC area under curve (AUC) normalized by STD AUC, A + D [2]: 5.288; VOC area under curve (AUC) normalized by STD AUC, C + D [2]: 6.371 |
| CCCCCCCCCCCCCC [Tetradecane] |  |  |  |  |  |  |  |  |  |  | Category (VOC increased or decreased relative to the control) ([1]; 24 h incubation): ↑; Category (VOC increased or decreased relative to the control) ([2]; 24 h): ↑* (↑*: <0.01) |
| CC(C)(C)c1ccc(O)c(C(C)(C)C)c1 [VOC21] | 4.821 | 0 | 0 | 7.283 | 0 | 0 | 0 | 0 | 0 | 0 |  |
| CC(C)(C)c1cccc(C(C)(C)C)c1O [VOC81] | 0 | 6.826 | 3.9958 | 0 | 5.981 | 3.906 | 0 | 3.661 | 0 | 1.167 |  |
| CCCCCCCCCCCCCC(C)=O [VOC33] | 4.667 | 0 | 0 | 0 | 4.026 | 0 | 7.051 | 0 | 0 | 0 |  |
| CCCCCCCCCCCC [VOC6] | 2.93 |  | 0 | 7.604 | 0 | 0 | 0 | 0 | 0 | 0 |  |
| CCC(C)CCC(C)CCCCC(C)C (stereo not shown) [VOC70] | 0 | 5.451 | 6.1264 | 0 | 1.598 | 2.709 | 0 | 8.971 | 0 | 1.423 |  |
| CC(C)(C)c1cccc(C(C)(C)C)c1O [2,6-Di-tert-butylphenol] |  |  |  |  |  |  |  |  |  |  | Category (VOC increased or decreased relative to the control) ([1]; 72 h incubation): ↑; Category (VOC increased or decreased relative to the control) ([2]; 72 h): ↑ |
| CC(=O)CCC(C)=O [VOC97] |  |  |  |  |  |  |  |  |  |  | VOC area under curve (AUC) normalized by STD AUC, A [1]: 0; VOC area under curve (AUC) normalized by STD AUC, B [1]: 5.359; VOC area under curve (AUC) normalized by STD AUC, C [1]: 4.1686; VOC area under curve (AUC) normalized by STD AUC, D [1]: 0; VOC area under curve (AUC) normalized by STD AUC, B + C [2]: 6.764; VOC area under curve (AUC) normalized by STD AUC, B + D [2]: 3.462; VOC area under curve (AUC) normalized by STD AUC, A + B [2]: 3.868; VOC area under curve (AUC) normalized by STD AUC, A + C [2]: 0; VOC area under curve (AUC) normalized by STD AUC, A + D [2]: 0; VOC area under curve (AUC) normalized by STD AUC, C + D [2]: 0 |
| O=C1CCCCC1 [VOC17] | 0 | 0 | 0 | 8.236 | 7.734 | 0 | 0 | 8.975 | 6.287 | 0 |  |
| CC(=O)CC(C)CC(C)C (stereo not shown) [4,6-Dimethyl-2-heptanone] |  |  |  |  |  |  |  |  |  |  | Category (VOC increased or decreased relative to the control) ([1]; 24 h incubation): ↓; Category (VOC increased or decreased relative to the control) ([2]; 72 h): ↑ |
| CCCC(C)C=O (stereo not shown) [VOC45] | 0 | 2.917 | 0 | 3.563 | 0 | 0 | 0 | 0 | 8.98 | 3.893 |  |
| C=C(C)CCO [VOC87] | 0 | 0 | 4.7815 | 4.854 | 0 | 6.943 | 6.777 | 4.197 | 4.222 | 2.7 |  |
| CCCCC(CC)COC(=O)c1ccccc1 (stereo not shown) [VOC65] | 0 | 0 | 5.1791 | 4.418 | 0 | 5.138 | 2.112 | 1.589 | 0.7462 | 7.483 |  |
